Article PMC8339588

Target: T1, TBC1D16 (pCMV-Flag-TBC1D16) (UniProt Q8TBP0)
T1 sequence: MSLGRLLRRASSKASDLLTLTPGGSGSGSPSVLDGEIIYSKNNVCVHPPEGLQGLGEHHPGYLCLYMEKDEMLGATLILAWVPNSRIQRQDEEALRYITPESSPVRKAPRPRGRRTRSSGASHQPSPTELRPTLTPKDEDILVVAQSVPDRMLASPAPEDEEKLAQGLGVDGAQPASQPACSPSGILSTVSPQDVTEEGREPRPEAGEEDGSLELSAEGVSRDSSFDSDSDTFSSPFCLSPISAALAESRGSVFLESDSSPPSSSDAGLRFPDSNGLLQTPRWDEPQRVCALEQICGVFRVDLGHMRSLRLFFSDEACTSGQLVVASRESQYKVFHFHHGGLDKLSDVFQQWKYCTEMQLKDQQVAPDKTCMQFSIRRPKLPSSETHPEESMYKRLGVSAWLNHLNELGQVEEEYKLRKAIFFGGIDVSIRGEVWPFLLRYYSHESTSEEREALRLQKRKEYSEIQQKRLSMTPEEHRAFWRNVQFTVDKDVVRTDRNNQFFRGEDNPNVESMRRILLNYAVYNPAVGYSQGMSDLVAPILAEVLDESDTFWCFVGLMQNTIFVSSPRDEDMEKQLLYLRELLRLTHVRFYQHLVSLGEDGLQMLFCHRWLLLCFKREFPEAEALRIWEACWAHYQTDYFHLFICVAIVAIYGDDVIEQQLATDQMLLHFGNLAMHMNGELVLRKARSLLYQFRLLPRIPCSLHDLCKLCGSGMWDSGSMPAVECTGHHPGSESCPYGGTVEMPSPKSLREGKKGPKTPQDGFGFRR
Test: co-IP; HEK293T cells cotransfected with the two tagged plasmids (3 ug each) for 48 h; lysed in Nonidet P-40 buffer (150 mM NaCl, 1 mM EDTA, 1% NP-40); precipitated with IgG (control) or the indicated antibodies on Protein A/G Plus-Agarose; washed three times with 500 mM NaCl lysis buffer …

Substance: PFV Gag (pCMV-His-Gag)
- binding: no binding

Results are given in words; binding and its absence hold for the method and conditions named. Binding seen in cells or lysates may run through a third protein. Sequences can lack the tags named with a protein.
